Data taken from patent publication US20140121167A1.
No constants are given. Whether binding was seen depends on the method and setting. Binding seen in cells or lysates may run through a third protein. Some entries that bind do so weakly or less than the wild type.

Chains of the proteins cited; added tags and fusions are not shown. Lines headed by an entry give the natural chain unless they say otherwise; changes in a name come on top. A line that says so, or that is headed by a name, gives the form on record, which may keep a tag or linker.
GFP-P1 (P42858, form named): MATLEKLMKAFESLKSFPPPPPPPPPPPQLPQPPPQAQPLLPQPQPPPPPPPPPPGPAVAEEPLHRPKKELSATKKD

Biological target: GFP-P1 (human) (UniProt P42858)
Test: co-immunoprecipitation from cotransfected HeLa cells (anti-GFP on protein G/A-agarose, anti-cherry western blot)

binding: binds
B1: Cherry-pep42 (peptide, not shown: small tags and cut ends)
chain: AASSGVSTPGSAGHDIITEQPRS
